In paper PMC5438710:
These are yes or no findings as the source states them, for the method shown. In cells and extracts the contact can be indirect. Some entries that bind do so weakly or less than the wild type.

Target: Myc-tagged p53 (human) (UniProt P04637)
Test: co-IP; Myc-tagged p53 precipitated with anti-Myc antibody and Protein A-agarose from 1 mg lysate of transfected MCF-7 cells (with and without NDRG2 overexpression, ADR treatment), 4°C overnight, three washes with lysis buffer; immunoblot with Bad antibody

binding: binds
B1: Bad (protein, UniProt Q92934 1-168)
chain: MFQIPEFEPSEQEDSSSAERGLGPSPAGDGPSGSGKHHRQAPGLLWDASHQQEQPTSSSHHGGAGAVEIRSRHSSYPAGTEDDEGMGEEPSPFRGRSRSAPPNLWAAQRYGRELRRMSDEFVDSFKKGLPRPKSAGTATQMRQSSSWTRVFQSWWDRNLGRGSSAPSQ
